# Primary screen of a compound library

Amino acid sequences for entries named in this document (tags omitted).
UniProt E9BF75, entry or part of it: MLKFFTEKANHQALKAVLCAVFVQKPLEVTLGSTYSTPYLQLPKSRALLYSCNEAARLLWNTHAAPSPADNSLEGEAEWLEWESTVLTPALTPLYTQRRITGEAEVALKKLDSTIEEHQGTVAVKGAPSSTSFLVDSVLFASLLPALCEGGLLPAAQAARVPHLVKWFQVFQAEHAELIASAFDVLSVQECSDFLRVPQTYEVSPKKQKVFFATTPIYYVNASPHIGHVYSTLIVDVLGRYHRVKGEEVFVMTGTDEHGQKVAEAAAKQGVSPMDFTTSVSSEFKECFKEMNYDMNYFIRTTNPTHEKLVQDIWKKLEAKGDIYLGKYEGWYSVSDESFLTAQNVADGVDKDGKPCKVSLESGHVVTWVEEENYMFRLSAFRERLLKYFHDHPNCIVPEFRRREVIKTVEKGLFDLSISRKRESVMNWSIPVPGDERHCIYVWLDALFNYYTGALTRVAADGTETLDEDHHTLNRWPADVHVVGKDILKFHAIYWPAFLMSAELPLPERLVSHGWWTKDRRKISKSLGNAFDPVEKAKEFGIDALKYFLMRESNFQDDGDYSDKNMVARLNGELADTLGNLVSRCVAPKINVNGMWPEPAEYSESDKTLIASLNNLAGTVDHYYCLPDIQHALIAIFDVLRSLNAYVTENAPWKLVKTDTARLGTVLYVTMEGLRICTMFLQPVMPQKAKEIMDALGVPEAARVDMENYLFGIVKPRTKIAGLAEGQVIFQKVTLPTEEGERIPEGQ

Data taken from ChEMBL document CHEMBL3988442, “University of Dundee, Small-Polar-MMV Screening Library” (2021).

Results are percentages, as filed.
The record does not define 0% and 100%; most values in the screen are far below 50% and negative numbers occur (in some assays of this library far below -100).
The compounds are a random part of those screened.

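Methionyl-tRNA synthetase (putative), Leishmania donovani (UniProt E9BF75). Primary screen of methionyl-tRNA synthetase; the read-out is not stated. The test concentration is not given. The values are filed as inhibition. About 68,000 compounds were tested under these conditions; 0.035% (about 24) showed 50% or more at least once.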

SMILES,inhibition
C=C(C)CN1C(=O)CC(Cc2ccc(F)cc2)C1=O (stereo unspecified),8.361
CN1CCO[C@@H]2CN(S(=O)(=O)c3cccnc3)C[C@@H]2C1,14.29
Cc1noc(-c2ccnc(Oc3ccccc3CN3CCCCC3)c2)n1,6.138
Cn1ncc2c1C(COCC1CC1)N(C(=O)c1ccncn1)CC2 (stereo unspecified),5.797
CN(C(=O)Nc1cccnc1)C1CCN(c2ccc(Cl)cc2)CC1,20.34
O=c1nc(SCc2ccncc2)c2c(n1CCO)CCCC2,8.374
CN(Cc1ccc(Cl)cc1)C(=O)Nc1cnn(CC(N)=O)c1,7.88
COCCN(Cc1nc2c(cnn2C)c(=O)[nH]1)Cc1ccco1,13.07
CN(C)[C@@H]1CN(C(=O)c2cc3cccc(F)c3[nH]2)C[C@H]1O,21.07
COCCNC(=O)C1CN(Cc2cccc(C)n2)Cc2ccnn2C1 (stereo unspecified),16.19
c1ccc2c(Cc3nnc([C@H]4CCN(C5CCCCC5)C4)o3)c[nH]c2c1,9.774
CN(C)C(=O)NC1COC2(CCN(S(=O)(=O)c3ccccc3)CC2)C1 (stereo unspecified),17.46
CCn1nccc1CNc1[nH]cnc2nncc1-2,13.51
CCN(CC)C(=O)[C@@H]1C[C@@H](NC(=O)c2cccn2C2CC2)CN1C,19.73
NC(=O)C1CCN(C(=O)CCSCc2ccc(Cl)c(Cl)c2)CC1,14.06
COCCN1CCC2(COCc3c(C)nc(N(C)C)nc32)C1 (stereo unspecified),9.966
O=C(CCN1C(=O)CCC1=O)NCC1(c2c(F)cccc2F)CCCC1,16.62
CCc1cc(O)nc(C2CCCN2C(=O)COC)n1 (stereo unspecified),18.64
O=C(CCc1ccc(Cl)s1)N1CCCC(n2cncn2)C1 (stereo unspecified),6.103
O=C(CN1CCCC(c2ncc[nH]2)C1)NCC(F)(F)F (stereo unspecified),1.242
COc1ccc(F)c(CN2CCCC(c3cc(O)nc(C)n3)C2)c1 (stereo unspecified),14.08
CCC1CCCCCN1C(=O)c1cc(C#N)c(SC)[nH]c1=O (stereo unspecified),8.709
O=C(C1CCC1)N1CCC2(CC1)CNCCO2,13.04
CCN1CCC2(CCN(c3ncccn3)CC2)C1=O,2.885
Cc1nn(C)c(C)c1C1COCCN1C(=O)CCc1ccccc1 (stereo unspecified),8.523
NC(=O)CCN(CC(=O)NCc1cccs1)c1ccc(F)cc1,15.97
O=C(Cc1cccnc1)N1CCC2(CCN(C3CCOC3)CC2)C1 (stereo unspecified),1.613
Cc1ccc(CNC(=O)c2ccc(CNS(C)(=O)=O)o2)cc1F,1.42
COCCNc1cc(-c2ccccc2C(=O)O)c2cc[nH]c2n1,18.12
CC(C)=CCC/C(C)=C/CC(C)(C)CNCc1ccco1,9.938
CN(C)c1ccc(NC(=O)CN2CCS(=O)(=O)CC2)cn1,4.261
COCCO[C@H]1CCN(Cc2cnn(C)c2)[C@H]1Cc1cccnc1,4.569
COc1ccc(CN2C[C@H]3C[C@H](C(=O)Nc4cccnc4)[C@@H](C2)O3)cc1,7.96
CC(=O)N1CCC(n2ccc(-c3cnc(NCC(C)C)nc3)n2)CC1,15.29
COC(=O)c1ncccc1N1CCC(C(O)c2ccccc2)CC1 (stereo unspecified),13.73
CCSc1cncc(N2CCC(C(=O)Nc3ccccn3)CC2)n1,7.796
CCS(=O)(=O)NCCCNc1ncnc2cc(F)c(F)cc12,14.49
COC(=O)C1CCCN1C(=O)c1ccc(-n2nc(C)cc2C)cc1 (stereo unspecified),9.023
CC(C)c1nc(-c2ccnc(N3CCNCC3)n2)no1,19.95
O=C1N(CCCc2ccccc2)CCCC1(O)CN1CCC(CO)CC1 (stereo unspecified),11.39
Cc1csc(C(=O)N2CC[C@H](Oc3cccnc3C)[C@@H](O)CC2)c1,4.941
Cc1nc(NCC2CC2)nc2c1COCC21CCN(C(=O)NC(C)C)C1 (stereo unspecified),1.99
CCC(CC(=O)NS(=O)(=O)C(C)C)c1ccccc1 (stereo unspecified),5.722
Cn1ccnc1Sc1ccc(S(N)(=O)=O)cn1,14.74
CC(C)CCN(C)C(=O)c1nc(S(C)(=O)=O)n2ccccc12,14.11
Cc1cc(C(=O)N2CCC(N3CCNC3=O)CC2)nn1C(C)(C)C,14.38
Cc1cccc(C)c1OC1CN(C(=O)C2CCCN(C(=O)N(C)C)C2)C1 (stereo unspecified),16.72
CC(C)c1ccccc1OCCNC(=O)N1CCC2(CC1)OCCO2,14.25

For reference, 4 entries once more:

SMILES,inhibition
COC(=O)C1CCCN1C(=O)c1ccc(-n2nc(C)cc2C)cc1 (stereo unspecified),9.023
O=C(CCN1C(=O)CCC1=O)NCC1(c2c(F)cccc2F)CCCC1,16.62
O=C1N(CCCc2ccccc2)CCCC1(O)CN1CCC(CO)CC1 (stereo unspecified),11.39
COCCNC(=O)C1CN(Cc2cccc(C)n2)Cc2ccnn2C1 (stereo unspecified),16.19